Test results from patent US20250249092A1 (TORAY INDUSTRIES, published 2025).
Residue numbers refer to the chain shown, from its start. In names and notes the source's numbering stands. No constants are given. Whether binding was seen depends on the method and setting. Some binding calls cover weakened binding; strength is not graded here.

B1: Conjugate 88 (antibody, human IgG1, V domains shown)
VH: EVQLHQFGAELVKPGASVKISCKASGYTFTDYNMDWVKQSHGKSLEWIGDINPNYDSTSYNQKFKGKATLTVDKSSSTAYMELRSLTSEDTAVYYCARSRSYDYEGFAYWGQGTLVTVSA
VL: DIQMTQSPASLSASVGETVTITCRASGNIHNYLAWYQQKQGKSPQLLVYNAKTLADGVPSRFSGSGSGTQYSLKINSLQPEDFGSYYCQHFWSTLTFGAGTKLELKR
B2: Conjugate 82 (antibody, human IgG1, V domains shown)
VH: GAELVRSGASVKMSCKASGYSFTDYNMYWVKQTPGQGLEWIGYIYPGNGGTNYNQKFKGKATLTADTSSSTAYMQISSLTSEDSAVYFCARDYDDGGYAMDYWGQGTTVTVSS
VL: DIQMTQSPASLSASVGETVTITCRASGNIHNYLTWYQQKQGKSPQLLVYNAKTLADGVPSRFSGSGSGTQYSLKINRLQPEDFGSYYCQHFWNIPWTFGGGTKLNSR
B3: Conjugate 83 (antibody, human IgG1, V domains shown)
VH: DAELVKPGASVKISCKASGYTFTDHSIHWVQQKPEQGLEWIGYISPGNGNIKYNEKFKGKATLTADKSSSTAYMQLNSLTSEDSAVYFCKRSLGRGGPYYFDYWGQGTTVTVSS
VL: DIVLTQAAPSLPVTPGESVSISCRSSKSLLHSNGNTYLYWFLQRPGQSPQLLIYRMSNLASGVPDRFSGSGSGTAFTLRISRVEAEDVGVYYCMQHREYPVTFGSGPN
B4: Conjugate 66 (antibody, human IgG1, V domains shown)
VH: GPDLVKPGASVKISCKASGYSFTAYYMHWVKQSHGKSLEWIGRVNPNNGGTTYNQKFKGKAILTVDKSSSTAYMELRSLTFEDSAVYYCARRIYYGYFDYWGQGTTVTVSS
VL: AFFAVSLGQRATISCKASQSVDYDGDSYMNWYQQKPGQPPKLLIYVASNLESGVPARFSGSGSGTDFTLNIHPVEEEDAATYYCQQSNEDPYTFGGGTKLEIKQ
B5: Conjugate 99 (antibody, human IgG1, V domains shown)
VH: B4 VH
VL: B4 VL
B6: Conjugate 78 (antibody, human IgG1, V domains shown)
VH: AVTLDESGGGLQTPGGALSLVCKASGFTFSGYDMLWVRQAPGKGLEWVAGIGSTGGGTDYGAAVKGRATISRDNGQSTVRLQLNNLRAEDTATYYCAKVAGGCNSGYCRDSPGSIDAWGHGTEVIVS
VL: AVTQQPASVSANPGETVKITCSGGGSRNYYGWYQQKSPGSVPVTVIYYDDQRPSNIPSRFSGALSGSTSTLTITGVQADDEAVYFCGSADSNTYEGSFGAGTTLTVL
B7: Conjugate 72 (antibody, human IgG1, V domains shown)
VH: EVQLVESGGGLVQPGGSLRLSCAASGFSLSSHSLGWVRQAPGKGLEWIGDIRSGGSAYYANWAKGRFTISRDNSKNTLYLQMNSLRAEDTAVYYCTRTNGPSDLTNRLDLWGQGTLVTVSS
VL: QVLTQSPSSLSASVGDRVTINCQASQSLYNNENLAWFQQKPGKVPKRLIYGASTLASGVSSRFSGSGSGTEFTLTISSLQCEDFAIYYCLGEFSCGSADCFAFGGGTKVEIK
B8: Conjugate 110 (antibody, human IgG1, V domains shown)
VH: B7 VH with Y94F
VL: EQVLTQSPSSLSASVGDRVTINCQASQSLYNNENLAWFQQKPGKVPKRLIYGASTLASGVSSRFSGSGSGTEFTLTISNLQPEDFAIYYCLGEFSCGSADCFAFGGGTKVEIK
B9: Conjugate 75 (antibody, human IgG1, V domains shown)
VH: B7 VH with Y94F
VL: B8 VL with Q2I, I87T
B10: Conjugate 76 (antibody, human IgG1, V domains shown)
VH: B7 VH
VL: B8 VL with Q2I, I87T
B11: Conjugate 109 (antibody, human IgG1, V domains shown)
VH: B7 VH
VL: B8 VL with Q2I, I87T
B12: Conjugate 106 (antibody, human IgG1, V domains shown)
VH: B7 VH with Y94F
VL: B7 VL
B13: Conjugate 105 (antibody, human IgG1, V domains shown)
VH: B7 VH
VL: B7 VL
B14: Conjugate 73 (antibody, human IgG1, V domains shown)
VH: B7 VH with Y94F
VL: B7 VL
B15: Conjugate 74 (antibody, human IgG1, V domains shown)
VH: B7 VH
VL: B8 VL
B16: Conjugate 108 (antibody, human IgG1, V domains shown)
VH: B7 VH with Y94F
VL: B8 VL with Q2I, I87T
B17: Conjugate 77 (antibody, human IgG1, V domains shown)
VH: B7 VH with Y94F
VL: B8 VL
B18: Conjugate 107 (antibody, human IgG1, V domains shown)
VH: B7 VH
VL: B8 VL
B19: Conjugate 22 (antibody, human IgG1, V domains shown)
VH: B7 VH with V2Q, Q3S
VL: B7 VL
notes: humanized antibody #2 (human IgG1) + resiquimod derivative, SATA and SMCC linkers
B20: Conjugate 12 (antibody, human IgG1, V domains shown)
VH: B7 VH with V2Q, Q3S
VL: B7 VL
notes: humanized antibody #6 (V regions of #2; human IgG1 S239D/I332E) + resiquimod, MC-Val-Cit-PAB linker
B21: Conjugate 8 (antibody, human IgG1, V domains shown)
VH: B7 VH with V2Q, Q3S
VL: B7 VL
notes: humanized antibody #2 (human IgG1) + resiquimod, MC-Val-Cit-PAB linker

Target: T1, CAPRIN-1 protein on the cell membrane surface of cancer cells (UniProt Q14444)
T1 sequence (looked up): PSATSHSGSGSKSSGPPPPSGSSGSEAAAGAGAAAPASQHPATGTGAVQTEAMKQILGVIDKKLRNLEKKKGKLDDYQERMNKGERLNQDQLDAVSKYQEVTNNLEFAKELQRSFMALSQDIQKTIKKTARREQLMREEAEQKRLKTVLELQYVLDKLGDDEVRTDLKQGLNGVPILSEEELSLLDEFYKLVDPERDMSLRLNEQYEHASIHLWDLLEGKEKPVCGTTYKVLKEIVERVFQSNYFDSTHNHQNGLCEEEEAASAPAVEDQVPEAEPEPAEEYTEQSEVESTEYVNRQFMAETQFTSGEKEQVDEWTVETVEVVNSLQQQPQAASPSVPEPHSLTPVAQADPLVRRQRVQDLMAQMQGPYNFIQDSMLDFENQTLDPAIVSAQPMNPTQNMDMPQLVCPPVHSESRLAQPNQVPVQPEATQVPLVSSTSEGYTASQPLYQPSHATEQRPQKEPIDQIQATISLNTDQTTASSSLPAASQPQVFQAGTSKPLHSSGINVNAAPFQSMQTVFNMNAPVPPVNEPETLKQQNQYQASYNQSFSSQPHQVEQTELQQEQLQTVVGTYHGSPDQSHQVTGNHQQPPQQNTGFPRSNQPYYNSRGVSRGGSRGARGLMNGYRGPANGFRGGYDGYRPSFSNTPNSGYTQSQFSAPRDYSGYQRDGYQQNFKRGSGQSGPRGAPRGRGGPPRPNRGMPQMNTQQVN
Test: flow cytometry

binding, binds:
B1, B2, B3, B4, B5, B6, B7, B8, B9, B10, B11, B12, B13, B14, B15, B16, B17, B18, B19, B20, B21

Target: T2, CAPRIN-1 protein (UniProt Q14444)
T2 sequence (looked up): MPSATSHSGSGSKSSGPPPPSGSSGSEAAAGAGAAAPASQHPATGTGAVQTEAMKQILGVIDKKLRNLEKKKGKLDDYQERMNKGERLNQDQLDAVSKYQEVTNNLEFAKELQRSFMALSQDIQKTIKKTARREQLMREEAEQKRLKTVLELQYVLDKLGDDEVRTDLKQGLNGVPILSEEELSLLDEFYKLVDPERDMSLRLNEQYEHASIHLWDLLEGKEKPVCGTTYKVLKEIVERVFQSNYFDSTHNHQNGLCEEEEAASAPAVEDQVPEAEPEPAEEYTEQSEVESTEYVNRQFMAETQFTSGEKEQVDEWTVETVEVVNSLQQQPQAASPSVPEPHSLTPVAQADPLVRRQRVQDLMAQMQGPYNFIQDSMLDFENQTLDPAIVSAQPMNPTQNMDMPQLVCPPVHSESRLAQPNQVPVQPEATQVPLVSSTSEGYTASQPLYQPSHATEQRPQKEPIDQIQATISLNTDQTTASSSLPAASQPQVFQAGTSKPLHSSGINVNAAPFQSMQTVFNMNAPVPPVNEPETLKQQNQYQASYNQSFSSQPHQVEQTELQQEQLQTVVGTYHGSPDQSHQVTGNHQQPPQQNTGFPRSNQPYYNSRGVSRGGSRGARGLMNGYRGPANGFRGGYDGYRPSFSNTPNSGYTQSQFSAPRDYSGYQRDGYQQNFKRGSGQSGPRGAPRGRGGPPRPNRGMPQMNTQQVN
Test: ELISA

binding, binds:
B1, B2, B3, B4, B5, B6, B7, B8, B9, B10, B11, B12, B13, B14, B15, B16, B17, B18, B19, B20, B21
